Laboratory results reported in the supplement of paper PMC5407854, “Inhibitor of ppGalNAc-T3-mediated O-glycosylation blocks cancer cell invasiveness and lowers FGF23 levels” (eLife, 2017).
Whole data set: some 1,700 compounds, median “T3 sensor activation Q score (MG/GFP ratio z-score vs DMSO controls)” near 0.25, cut for the highest 2% near 1.9. The list shows a part of the results.

Test system: ppGalNAc-T3 sensor
Assay: T3 sensor activation Q score (MG/GFP ratio z-score vs DMSO controls) (SD units); higher = more sensor activation (inhibition of ppGalNAc-T3 glycosylation)
Conditions: HEK293 sensor cells; 10 µM; 6 h
Description: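 Cells were treated with compound at 10 uM for 6 h, then MG/GFP ratio was read by flow cytometry (10,000 cells per well, duplicate wells). Q = (R - R_neg)/SD_neg relative to DMSO vehicle controls; the signal rises when the glycosyltransferase is inhibited.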

Structure (SMILES)	T3 sensor activation Q score
CCOC(=O)N1CCc2cc(OC)c(OC)c3c2c1cc1cc(OC)c(OC)cc13	0.9
C=CCSC(CC)(CC)C(N)=O	0.8
CNC(=O)c1cc(Oc2ccc(NC(=O)Nc3ccc(Cl)c(C(F)(F)F)c3)c(F)c2)ccn1	0
O=C1OC(CN(Cc2ccccc2)Cc2ccccc2)CN1/N=C/c1ccc([N+](=O)[O-])o1 (stereo not given)	-0.6
Cc1c(Cl)ccc2c(C(=O)O)cc(-c3ccccc3)nc12	0.5
Clc1ccc(-c2n[nH]c3c2Cc2ccccc2-3)cc1Cl	1.8
Nc1c(Cl)ncnc1NCCO	0.55
CCc1nc(N)nc(N)c1-c1ccc(N(C)Cc2ccccc2)c([N+](=O)[O-])c1	-1.85
CCOC(=O)c1c(C)oc(C)c(C(=O)OCC)c1=O	0.85
O=[N+]([O-])c1ccc(-c2ncc(-c3ccc(Br)cc3)o2)cc1	1.8
Cc1ccc2ccc(C#N)cc2c1O	-0.35
CCOC(=O)c1nn(C)c2[nH]c(=O)n(C)c(=O)c12	0.15
CC(C)(C#N)c1cc(Cn2cncn2)cc(C(C)(C)C#N)c1	0.4
O=C1NC(=O)C(Cc2ccccc2)(c2cccnc2)N1 (stereo not given)	1.05
Nc1ccc(OC(=O)Nc2ccc(O)cc2)cc1	-0.45
CC1=CC2(C)NC(=O)C(C)C12 (stereo not given)	-0.9
O=C1NC(=O)C2(CCc3ccccc32)N1 (stereo not given)	0.25
CCOC(=O)c1ccc(NC(=O)Oc2cc(C)c(Cl)cc2C(C)C)cc1	1.4
O=C(O)CCN1c2ccccc2Sc2ccccc21	0.35
Cc1nc2c(O)cccc2cc1CO	0.4
OCc1ncc(-c2ccccc2)s1	-0.6
O=C1Cc2cccc(=O)c(O)c2C(=O)O1	0.65
O=C(Nc1ccc(Nc2ccccc2)cc1)Nc1ccccc1Cl	0.75
CC(=O)OC1C=CCC2C(=O)c3cccc(O)c3C(O)C12 (stereo not given)	0.8

Structure (SMILES)	T3 sensor activation Q score
Oc1ccc(NC(=S)Nc2ccccc2)cc1	1.35
CC[C@]1(O)C[C@H]2CN(CCc3c([nH]c4ccccc34)[C@@](C(=O)OC)(c3cc4c(cc3OC)N(C=O)[C@H]3[C@@](O)(C(=O)OC)[C@H](OC(C)=O)[C@]5(CC)C=CCN6CC[C@]43[C@@H]65)C2)C1	1.6
COc1cc(-c2ccc(Nc3ccccc3C(=O)O)c(OC)c2)ccc1Nc1ccccc1C(=O)O	0.85
COC(=O)c1cc(C)[nH]c2c(C)cc3nc4ccccc4c3c12	-0.15
O=C(O)c1cccc2c1C(=O)c1cccc3snc-2c13	-0.15
Cc1ccc([S+]([O-])c2ccc([N+](=O)[O-])c3nonc23)cc1 (stereo not given)	-0.6
O=C(Nc1ccc(Nc2ccncc2)cc1)c1ccc(Nc2ccnc3ccc([N+](=O)[O-])cc23)cc1[N+](=O)[O-]	-1.4
CCOC(=O)C(Cc1ccc(O)cc1)Nc1nc2ccccc2o1 (stereo not given)	-0.1
S=c1cn[nH]c2ccccc12	-0.45
CC1(CN2CCCC2)CCC(NC(=O)C(c2ccccc2)c2ccccc2)C(C)(C)O1 (stereo not given)	-1.45
C#CC(C)OCC1CNC(=S)O1 (stereo not given)	-1.8
CC(OC(=O)Nc1cccc(Cl)c1)C(=O)O (stereo not given)	-0.45
CCCCNc1cc(Cl)nc(N)n1	0.45
COc1cc(N=Nc2cccc(S(N)(=O)=O)c2)c2ccccc2c1N	-1.8
CN(C)CCC1c2ccc(Cl)cc2CCc2cccnc21 (stereo not given)	0.25
CC(=O)Nc1ccc(Cc2nc3c([nH]2)c(=O)n(C)c(=O)n3C)cc1	-1.9
Clc1ccccc1-c1nc2ccccc2[nH]1	-0.55
Nc1nc2nn(-c3ccccc3)nc2c(=O)[nH]1	-0.55
CCOc1ccc(NC(=S)NC(=O)c2ccco2)cc1	-1.05
O=C(Nc1ccc(NC(=O)c2ccncc2)cc1)c1ccncc1	-0.9
CC1CC=C(O)C12OCC(C)(C)CO2 (stereo not given)	-0.05
CN(N=O)C(=O)N[C@@H]1[C@@H](O)[C@H](O)[C@@H](CO)O[C@@H]1O	1.3
O=C(Nc1ccc(Cl)c(Cl)c1)c1ccc(Cl)c(Cl)c1	0.3
Cc1[nH]c(N=Nc2ccccc2)nc1N=Nc1ccccc1	-1.15

Random excerpt: three compounds from above
Structure (SMILES)	T3 sensor activation Q score
CC1CC=C(O)C12OCC(C)(C)CO2 (stereo not given)	-0.05
CN(C)CCC1c2ccc(Cl)cc2CCc2cccnc21 (stereo not given)	0.25
C#CC(C)OCC1CNC(=S)O1 (stereo not given)	-1.8

The list continues.

Structure (SMILES)	T3 sensor activation Q score
CC1(C)O[C@H]2CC(=O)OC[C@]23[C@H]2CC[C@@]4(C)[C@H](c5ccoc5)OC(=O)[C@H]5O[C@]54[C@]2(C)C(=O)C[C@@H]13	0
COc1cc2c(cc1OC)C(/C=C/c1ccco1)=NCC2	-0.15
O=C(/C=C/c1cccnc1)c1ccccc1O	-0.65
C#Cc1cccc(Nc2ncnc3cc(OCCOC)c(OCCOC)cc23)c1	2.15
O=C1OCC/C1=C\c1ccc2c(c1)OCO2	-0.1
COCC(O)Cn1ccnc1[N+](=O)[O-] (stereo not given)	0.85
COC(=O)C1=C(C(=O)OC)[C@@H]2CCC[C@H]1[C@H]1[C@@H]2N=NN1c1ccccc1	1.15
O=C(O)CCC1(c2ccccc2)NC(=O)NC1=O (stereo not given)	0.65
CC(=O)OCCn1c([N+](=O)[O-])cnc1/C=[N+](\[O-])C1CCCCC1	-0.05
O=C(c1ccccc1)C1N=NCC1c1ccc(Cl)cc1 (stereo not given)	0.8
CN1N=C(N)c2cn([C@@H]3O[C@H](COP(=O)(O)O)[C@@H](O)[C@H]3O)c3ncnc1c23	0.25
Cn1ncc2c(Nc3cccc(Cl)c3)nc(Nc3cccc(Cl)c3)nc21	0.75
CC1(C)CC(=O)C(CC(=O)c2ccccc2)=C(NN=C(N)N)C1	0.7
CO[C@H](C(=O)[C@@H](O)[C@@H](C)O)[C@@H]1Cc2cc3cc(O[C@H]4C[C@@H](O[C@H]5C[C@@H](O)[C@H](O)[C@@H](C)O5)[C@H](O)[C@@H](C)O4)c(C)c(O)c3c(O)c2C(=O)[C@H]1O[C@H]1C[C@@H](O[C@H]2C[C@@H](O[C@H]3C[C@](C)(O)[C@H](O)[C@@H](C)O3)[C@@H](O)[C@@H](C)O2)[C@H](O)[C@@H](C)O1	-1.35
COc1ccccc1N1C(=O)CC(Sc2ccccc2N)C1=O (stereo not given)	0.05
CC1(C)CCCC2(C)C(OCCO)=CC(=O)C=C12 (stereo not given)	0.85
Cc1csc(NC(=O)c2ccc(C(=O)Nc3nc(C)cs3)cc2)n1	1.4
O=C1NCN(CCO)CN1	1.3
O=C(O)/C=C\c1cc2c(cc1[N+](=O)[O-])OCO2	0.3
NC(=O)c1nc2c([nH]c1=O)CCCC2	-1.25
CC(=O)/C=C(\C)Nc1ccccc1O	-0.05
Cc1c(C(C)(C(=O)O)c2c(C)n(C)c3ccccc23)c2ccccc2n1C	0.8
